Drawing on patent US20230047313A1, “TREATING HEART DISEASE IN MUSCULAR DYSTROPHY PATIENTS” (Children`s Medical Center Corporation, priority 2019, published 2023), this text covers binding for one molecule.

For assay [1], the target named is Flag-tagged CnA. Put plainly: co-immunoprecipitation (FIG. 5C: Myc-tagged CIP with Flag-tagged CnA).
Assay [2] concerns the target Flag-tagged C-terminal of dystrophin (DMD-C). The assay can be described thus: co-immunoprecipitation, tagged proteins in transfected HEK293 cells (FIG. 5B).
For assay [3], the target named is Flag-tagged N-terminal of dystrophin (DMD-N). The assay is described as above.
For a further assay, the target named is Flag-tagged Lmo7. The assay is described as above.
Assay [4] deals with Flag-tagged CnA. Put plainly: co-immunoprecipitation, tagged proteins in transfected HEK293 cells (FIG. 5C).
The next assay concerns the target Flag-tagged CIB1. The assay is described as above.
For assay [5], the target named is Flag-tagged C-terminal of dystrophin (DMD-C). The assay can be described thus: co-immunoprecipitation (FIG. 5B: Myc-tagged CIP with Flag-tagged DMD-C); the sentence says 'dystrophin'.

Results are given in words; binding and its absence hold for the method and conditions named. Binding seen in cells or lysates may run through a third protein. For some of these results: Binding calls can cover weak binding; strength is not graded here. Sequences can lack the tags named with a protein.

B1: Myc-tagged CIP (protein, UniProt Q5FW52-1 1-269, looked up, not shown: small tags and cut ends)
chain: MEFGKHEPGSSLKRNKNLEEGVTFEYSDHMTFSSESKQERVQRILDYPSEVSGRNSQQKEFNTKEPQGMQKGDLFKAEYVFIVDSDGEDEATCRQGEQGPPGGPGNIATRPKSLAISSSLASDVVRPKVRGADLKTSSHPEIPHGIAPQQKHGLALDEPARTESNSKASVLDLPVEHSSDSPSRPPQTMLGSETIKTPTTHPRAAGRETKYANLSSSSSTASESQLTKPGVIRPVPVKSKLLLRKDEEVYEPNPFSKYLEDNSGLFSEQ
For B1, the binding entry is listed as “binds” with Flag-tagged CnA [1]; “binds” in assay [2]; “no binding” in assay [3]; “binds” in the assay with Flag-tagged Lmo7; “binds” in the assay with Flag-tagged CnA [4]; “no binding” with Flag-tagged CIB1. Further, in assay [5], the binding entry is reported as “binds”.
